We go through one molecule from patent US20110223157A1, “METHODS FOR THE TREATMENT OF NON-HODGKIN'S LYMPHOMAS USING LENALIDOMIDE, AND GENE AND PROTEIN BIOMARKERS AS A PREDICTOR” (priority 2010, published 2011).

The subject of this data set is DLBCL cells. Nature of the data set: Pearson 2-tailed correlation of antiproliferative activity of lenalidomide with baseline markers in DLBCL cells. The method, then:
The correlation between the antiproliferative effect on DLBCL cells of lenalidomide at 1 μM, a clinical achievable concentration, and baseline NFκB p50 activity was determined by Pearson 2-tailed correlation analysis method. A significant (p<0.001) correlation was observed between antiproliferative activity of lenalidomide in these DLBCL cell lines and baseline levels of activity of NFκB, particularly the p50 subunit.

As to `Nc1cccc2c1CN(C1CCC(=O)NC1=O)C2=O` (stereo not shown) [lenalidomide, 3-(4-amino-1-oxo-1,3-dihydro-isoindol-2-yl)-piperidine-2,6-dione], the “Correlation with antiproliferative activity of 1 mM lenalidomide” value is, setting by setting: (Oncomine ABC scores) “Correlated”; (Oncomine NFkB Scores) “Correlated”; (baseline A20 gene expression) “Not Correlated”; (baseline CARD11 gene expression) “Correlated”; (baseline IRF4 gene expression) “Correlated”; (baseline SPIB gene expression) “Not Correlated”. The “Correlation with antiproliferative activity of 1 mM lenalidomide” value is, setting by setting: (baseline activity of NFkB subunit p50) “Correlated”; (baseline activity of NFkB subunit p65) “Correlated”; (baseline cyclin D1 gene expression) “Not Correlated”; (baseline cyclin D3 gene expression) “Not Correlated”.
